Data on 16 molecules can be found in PMC12829148.

Chains of the proteins cited; added tags and fusions are not shown. Residues count along the entry.
UniProt P35579: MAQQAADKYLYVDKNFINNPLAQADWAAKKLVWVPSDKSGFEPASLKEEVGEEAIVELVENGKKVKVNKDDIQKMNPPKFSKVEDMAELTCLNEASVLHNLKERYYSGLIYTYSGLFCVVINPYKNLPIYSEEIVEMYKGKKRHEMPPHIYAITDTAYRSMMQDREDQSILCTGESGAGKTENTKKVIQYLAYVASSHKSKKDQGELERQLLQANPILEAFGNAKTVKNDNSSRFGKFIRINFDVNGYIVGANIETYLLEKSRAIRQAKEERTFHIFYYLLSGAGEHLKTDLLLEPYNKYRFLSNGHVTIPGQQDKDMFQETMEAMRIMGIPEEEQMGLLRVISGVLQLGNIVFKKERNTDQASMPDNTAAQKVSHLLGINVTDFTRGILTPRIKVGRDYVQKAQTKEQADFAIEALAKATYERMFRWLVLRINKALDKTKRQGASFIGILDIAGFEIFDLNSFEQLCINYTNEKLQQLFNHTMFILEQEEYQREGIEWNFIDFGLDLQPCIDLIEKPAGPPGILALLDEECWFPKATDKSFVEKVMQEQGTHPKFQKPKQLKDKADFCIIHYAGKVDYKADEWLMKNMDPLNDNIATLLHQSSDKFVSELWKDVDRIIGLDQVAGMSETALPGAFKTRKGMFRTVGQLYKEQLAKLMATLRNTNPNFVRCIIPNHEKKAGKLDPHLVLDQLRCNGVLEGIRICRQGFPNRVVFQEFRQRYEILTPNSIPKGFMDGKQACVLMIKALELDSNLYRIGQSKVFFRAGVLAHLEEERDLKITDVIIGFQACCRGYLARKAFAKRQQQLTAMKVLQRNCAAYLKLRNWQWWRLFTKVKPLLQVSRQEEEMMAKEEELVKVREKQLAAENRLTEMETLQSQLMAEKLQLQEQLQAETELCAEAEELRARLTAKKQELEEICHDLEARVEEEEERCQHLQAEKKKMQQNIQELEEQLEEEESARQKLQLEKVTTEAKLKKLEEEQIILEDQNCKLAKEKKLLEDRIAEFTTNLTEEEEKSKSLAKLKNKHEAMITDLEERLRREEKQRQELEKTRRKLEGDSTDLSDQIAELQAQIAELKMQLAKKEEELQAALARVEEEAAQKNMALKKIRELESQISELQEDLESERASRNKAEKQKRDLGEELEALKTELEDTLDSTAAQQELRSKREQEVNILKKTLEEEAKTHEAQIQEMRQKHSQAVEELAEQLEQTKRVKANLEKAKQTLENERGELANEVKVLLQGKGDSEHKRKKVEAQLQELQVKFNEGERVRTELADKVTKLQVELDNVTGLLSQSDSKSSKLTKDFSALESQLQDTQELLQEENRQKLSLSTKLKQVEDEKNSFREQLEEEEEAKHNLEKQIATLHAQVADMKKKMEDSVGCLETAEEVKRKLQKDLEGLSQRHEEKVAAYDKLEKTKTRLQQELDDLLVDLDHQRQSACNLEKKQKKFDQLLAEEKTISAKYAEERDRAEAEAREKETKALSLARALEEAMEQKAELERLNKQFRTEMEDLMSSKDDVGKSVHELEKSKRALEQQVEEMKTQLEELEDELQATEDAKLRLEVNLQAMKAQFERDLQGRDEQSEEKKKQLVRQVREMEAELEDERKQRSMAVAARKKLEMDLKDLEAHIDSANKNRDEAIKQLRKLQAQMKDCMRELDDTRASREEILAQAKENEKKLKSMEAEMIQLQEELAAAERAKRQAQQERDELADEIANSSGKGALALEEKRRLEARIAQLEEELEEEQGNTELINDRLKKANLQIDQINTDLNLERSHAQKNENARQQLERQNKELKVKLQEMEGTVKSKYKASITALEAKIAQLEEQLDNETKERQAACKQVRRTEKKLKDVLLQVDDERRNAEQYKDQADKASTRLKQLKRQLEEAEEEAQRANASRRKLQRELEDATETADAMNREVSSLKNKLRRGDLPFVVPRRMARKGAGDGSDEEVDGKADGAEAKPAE
UniProt P03466: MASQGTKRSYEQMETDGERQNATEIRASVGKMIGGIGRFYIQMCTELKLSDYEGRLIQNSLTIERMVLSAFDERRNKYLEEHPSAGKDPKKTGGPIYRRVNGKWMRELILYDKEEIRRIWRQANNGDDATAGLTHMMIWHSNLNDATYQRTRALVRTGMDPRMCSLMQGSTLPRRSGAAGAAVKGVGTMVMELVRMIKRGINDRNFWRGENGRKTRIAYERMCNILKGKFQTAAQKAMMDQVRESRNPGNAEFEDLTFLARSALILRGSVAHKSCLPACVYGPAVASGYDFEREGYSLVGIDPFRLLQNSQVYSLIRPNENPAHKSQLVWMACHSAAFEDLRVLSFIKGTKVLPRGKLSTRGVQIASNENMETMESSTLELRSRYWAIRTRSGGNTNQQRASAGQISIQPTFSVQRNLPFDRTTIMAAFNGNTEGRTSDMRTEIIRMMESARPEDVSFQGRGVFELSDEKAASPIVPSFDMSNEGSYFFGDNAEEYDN
UniProt O95425: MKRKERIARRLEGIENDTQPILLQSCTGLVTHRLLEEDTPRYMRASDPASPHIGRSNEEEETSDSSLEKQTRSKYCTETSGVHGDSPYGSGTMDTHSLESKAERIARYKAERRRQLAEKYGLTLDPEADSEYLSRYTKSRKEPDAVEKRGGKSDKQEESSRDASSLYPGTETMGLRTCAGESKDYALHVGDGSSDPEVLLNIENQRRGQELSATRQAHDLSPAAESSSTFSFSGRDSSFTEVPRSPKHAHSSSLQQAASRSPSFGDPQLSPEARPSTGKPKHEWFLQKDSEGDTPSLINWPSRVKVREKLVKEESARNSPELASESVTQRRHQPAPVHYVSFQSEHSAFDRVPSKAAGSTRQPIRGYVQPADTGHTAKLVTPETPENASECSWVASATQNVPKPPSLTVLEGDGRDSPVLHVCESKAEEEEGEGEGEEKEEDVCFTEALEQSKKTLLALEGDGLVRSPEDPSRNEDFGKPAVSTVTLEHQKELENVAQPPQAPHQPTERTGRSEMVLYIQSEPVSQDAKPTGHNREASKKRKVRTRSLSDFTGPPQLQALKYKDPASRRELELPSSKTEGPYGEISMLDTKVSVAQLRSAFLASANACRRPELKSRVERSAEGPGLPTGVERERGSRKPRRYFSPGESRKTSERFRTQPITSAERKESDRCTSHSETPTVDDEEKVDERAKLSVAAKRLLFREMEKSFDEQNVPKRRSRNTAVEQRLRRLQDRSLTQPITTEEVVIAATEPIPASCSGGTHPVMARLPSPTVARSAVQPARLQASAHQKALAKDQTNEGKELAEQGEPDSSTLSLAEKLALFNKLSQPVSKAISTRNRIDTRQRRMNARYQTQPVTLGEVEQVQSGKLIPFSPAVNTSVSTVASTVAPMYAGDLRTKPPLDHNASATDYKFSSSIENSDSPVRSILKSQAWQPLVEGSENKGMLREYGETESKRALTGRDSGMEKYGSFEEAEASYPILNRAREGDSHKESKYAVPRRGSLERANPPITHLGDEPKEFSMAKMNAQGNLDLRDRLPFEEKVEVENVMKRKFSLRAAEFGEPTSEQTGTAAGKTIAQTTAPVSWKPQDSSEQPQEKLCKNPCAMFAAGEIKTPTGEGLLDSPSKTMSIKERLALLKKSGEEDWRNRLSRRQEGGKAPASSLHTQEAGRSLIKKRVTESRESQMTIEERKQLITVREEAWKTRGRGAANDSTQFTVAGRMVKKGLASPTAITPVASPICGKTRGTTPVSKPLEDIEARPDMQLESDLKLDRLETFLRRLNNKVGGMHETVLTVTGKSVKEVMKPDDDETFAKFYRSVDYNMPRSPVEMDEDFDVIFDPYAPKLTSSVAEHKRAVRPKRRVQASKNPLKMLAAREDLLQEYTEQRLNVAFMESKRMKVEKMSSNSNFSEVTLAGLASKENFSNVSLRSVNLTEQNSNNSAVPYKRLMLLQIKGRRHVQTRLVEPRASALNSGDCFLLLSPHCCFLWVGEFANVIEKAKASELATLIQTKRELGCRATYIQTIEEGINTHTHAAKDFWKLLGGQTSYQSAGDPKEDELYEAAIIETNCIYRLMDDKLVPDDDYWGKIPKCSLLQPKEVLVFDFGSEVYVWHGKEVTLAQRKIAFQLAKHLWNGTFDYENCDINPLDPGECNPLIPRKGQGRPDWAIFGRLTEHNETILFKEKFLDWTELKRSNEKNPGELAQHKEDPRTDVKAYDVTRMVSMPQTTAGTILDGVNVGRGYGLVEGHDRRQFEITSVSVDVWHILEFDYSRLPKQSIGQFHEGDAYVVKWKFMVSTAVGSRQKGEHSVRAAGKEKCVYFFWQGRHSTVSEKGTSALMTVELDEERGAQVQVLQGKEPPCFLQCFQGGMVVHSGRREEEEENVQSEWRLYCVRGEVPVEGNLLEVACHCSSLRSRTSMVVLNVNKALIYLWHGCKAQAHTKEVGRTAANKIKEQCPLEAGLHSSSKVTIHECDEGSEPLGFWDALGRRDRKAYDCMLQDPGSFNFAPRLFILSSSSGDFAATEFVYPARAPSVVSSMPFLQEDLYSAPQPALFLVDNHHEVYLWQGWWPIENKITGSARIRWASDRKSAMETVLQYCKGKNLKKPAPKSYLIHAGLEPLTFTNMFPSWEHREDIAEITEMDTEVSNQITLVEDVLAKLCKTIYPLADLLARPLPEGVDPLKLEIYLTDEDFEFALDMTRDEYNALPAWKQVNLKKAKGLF
UniProt Q9UM54: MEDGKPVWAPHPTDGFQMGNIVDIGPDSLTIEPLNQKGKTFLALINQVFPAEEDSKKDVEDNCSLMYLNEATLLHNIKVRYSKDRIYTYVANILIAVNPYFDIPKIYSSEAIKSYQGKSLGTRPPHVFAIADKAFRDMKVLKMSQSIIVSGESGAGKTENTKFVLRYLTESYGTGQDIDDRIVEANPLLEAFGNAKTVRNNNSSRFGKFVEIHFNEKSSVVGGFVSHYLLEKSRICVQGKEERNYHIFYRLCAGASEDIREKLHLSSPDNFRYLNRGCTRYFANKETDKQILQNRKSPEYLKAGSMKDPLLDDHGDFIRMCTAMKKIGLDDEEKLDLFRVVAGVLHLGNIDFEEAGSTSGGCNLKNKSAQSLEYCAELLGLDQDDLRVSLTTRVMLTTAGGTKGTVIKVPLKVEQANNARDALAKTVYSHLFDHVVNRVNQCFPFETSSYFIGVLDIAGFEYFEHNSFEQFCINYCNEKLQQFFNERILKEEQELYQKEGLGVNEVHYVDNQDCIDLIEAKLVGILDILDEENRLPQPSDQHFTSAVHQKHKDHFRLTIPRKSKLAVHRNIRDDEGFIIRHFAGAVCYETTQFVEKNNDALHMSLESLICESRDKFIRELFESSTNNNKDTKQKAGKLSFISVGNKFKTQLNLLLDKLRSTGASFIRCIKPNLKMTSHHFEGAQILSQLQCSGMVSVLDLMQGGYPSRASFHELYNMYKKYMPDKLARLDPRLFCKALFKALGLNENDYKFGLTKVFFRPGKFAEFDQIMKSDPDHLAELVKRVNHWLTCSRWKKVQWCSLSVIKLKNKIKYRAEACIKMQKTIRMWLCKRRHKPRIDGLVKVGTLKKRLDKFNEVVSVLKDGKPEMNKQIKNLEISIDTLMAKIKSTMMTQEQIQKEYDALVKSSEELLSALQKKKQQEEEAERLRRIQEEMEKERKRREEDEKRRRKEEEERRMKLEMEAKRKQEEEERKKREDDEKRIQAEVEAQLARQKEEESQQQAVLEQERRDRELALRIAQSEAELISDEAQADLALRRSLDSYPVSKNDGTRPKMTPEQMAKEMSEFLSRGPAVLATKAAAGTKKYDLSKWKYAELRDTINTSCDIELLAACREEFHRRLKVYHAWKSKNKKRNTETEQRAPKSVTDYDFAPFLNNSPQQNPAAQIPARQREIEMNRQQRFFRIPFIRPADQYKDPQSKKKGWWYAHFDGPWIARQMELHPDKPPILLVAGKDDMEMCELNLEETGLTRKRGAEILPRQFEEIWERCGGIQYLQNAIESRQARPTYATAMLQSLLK
UniProt O43493, residues 22-437: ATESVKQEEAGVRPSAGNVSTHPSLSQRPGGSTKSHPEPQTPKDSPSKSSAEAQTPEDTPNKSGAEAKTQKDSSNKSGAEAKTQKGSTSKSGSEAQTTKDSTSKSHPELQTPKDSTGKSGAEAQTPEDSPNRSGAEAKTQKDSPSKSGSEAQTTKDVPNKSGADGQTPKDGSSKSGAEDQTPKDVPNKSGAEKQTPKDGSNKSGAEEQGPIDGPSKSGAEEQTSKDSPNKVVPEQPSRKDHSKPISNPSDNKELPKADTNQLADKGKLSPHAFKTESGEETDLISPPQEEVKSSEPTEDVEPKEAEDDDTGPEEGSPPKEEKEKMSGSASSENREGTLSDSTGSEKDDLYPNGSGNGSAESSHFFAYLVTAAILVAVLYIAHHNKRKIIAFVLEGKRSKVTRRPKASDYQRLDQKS

Results are given in words; binding and its absence hold for the method and conditions named. For part of these data: In cells and extracts the contact can be indirect. Some binding calls cover weakened binding; strength is not graded here.

Assay [1] deals with MYH9 (human (endogenous in A375)) (UniProt P35579). Briefly: thermal proximity coaggregation (TPCA), scored with Tapioca; A375 cells heated at 10 temperatures 37-55 °C, soluble fraction, TMT-DDA MS; pair called detected when the Tapioca machine-learning score passed the cutoff 0.5; known PPIs only.
For assay [2], the target named is ACTN1 (human (endogenous in A375 and A549)) (UniProt P12814). Briefly: ion-based proteome-integrated solubility alteration (I-PISA), scored with Tapioca; A375 cells with a ZnCl2 gradient between 0 and 800 uM (five or ten concentrations; which data set is not told for these pairs), soluble fraction, TMT-DDA MS; pair called detected when the Tapioca score passed the data-set cutoff; known PPIs only.

The target of assay [3] is MYH9 (human (endogenous in A375)) (UniProt P35579). Briefly: thermal proximity coaggregation (TPCA), scored with Tapioca; A375 cells heated at 10 temperatures 37-55 °C, insoluble fraction (pellet), TMT-DDA MS; pair called detected when the Tapioca score passed the data-set cutoff; known PPIs only.
Assay [4] has as its target ACTN1 (human (endogenous in A375 and A549)) (UniProt P12814). Briefly: thermal proximity coaggregation (TPCA), scored with Tapioca.
Assay [5] shares this target. The assay can be described thus: ion-based proteome-integrated solubility alteration (I-PISA), scored with Tapioca; A375 cells with five ZnCl2 concentrations 0-550 uM, insoluble fraction (pellet), TMT-DDA MS; pair called detected when the Tapioca score passed the cutoff 0.7; known PPIs only.
Assay [6] shares this target. Briefly: thermal proximity coaggregation (TPCA), scored with Tapioca; A375 cells heated at 10 temperatures 37-55 °C, soluble fraction, TMT-DDA MS; pair called detected when the Tapioca machine-learning score passed the cutoff 0.5; known PPIs only.
The target of assay [7] is viral nucleoprotein (NP) (Influenza A H1N1 A/Puerto Rico/8/1934) (UniProt P03466). Briefly: thermal proximity coaggregation (TPCA), scored with Tapioca.
For assay [8], the target named is T1, TMED7 (human (endogenous in A549)) (UniProt Q9Y3B3).
T1 sequence: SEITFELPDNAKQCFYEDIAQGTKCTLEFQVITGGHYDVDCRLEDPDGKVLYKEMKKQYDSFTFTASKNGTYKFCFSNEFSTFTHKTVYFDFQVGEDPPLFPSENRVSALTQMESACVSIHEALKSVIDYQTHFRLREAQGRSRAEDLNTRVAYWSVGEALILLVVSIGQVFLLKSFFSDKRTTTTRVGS
The description is as above.

The target of assay [9] is MYH9 (human (endogenous in A375)) (UniProt P35579). Briefly: ion-based proteome-integrated solubility alteration (I-PISA), scored with Tapioca; A375 cells with five ZnCl2 concentrations 0-550 uM, insoluble fraction (pellet), TMT-DDA MS; pair called detected when the Tapioca score passed the cutoff 0.7; known PPIs only.
Assay [10] addresses viral M1 protein (Influenza A H1N1 A/Puerto Rico/8/1934) (UniProt P03485). The assay can be described thus: thermal proximity coaggregation (TPCA), scored with Tapioca.

Turning to MYH14 (from UniProt Q7Z406 1-1995), the binding entry in [1] is recorded as “binds”.

In the case of SVIL (from UniProt O95425 1-2214), the binding result in assay [2] is given as “binds”.

On to MYO6 (from UniProt Q9UM54 1-1294), for which the binding result in assay [3] is listed as “binds”.

Take PDLIM7 (from UniProt Q9NR12 1-457): the binding entry in assay [2] is “binds”.

For the molecule ACTN4 (from UniProt O43707 1-911), the binding result in assay [4] and in assay [5] was “binds” in each case.

For TPM4 (from UniProt P67936 1-248), the binding result in assay [6] is listed as “binds”.

With LGALS9 (from UniProt O00182 1-355), the binding entry in [7] is on record as “binds”.

Regarding IQGAP1 (from UniProt P46940 1-1657), the binding result in [5] is given as “binds”.

For TWF1 (from UniProt Q12792 1-350), the binding entry in assay [8] is recorded as “binds”.

Regarding CTTN (from UniProt Q14247 1-550), the binding entry in [4] was “binds”.

In the case of ITGB1 (from UniProt P05556 21-798), in assay [6], the binding entry is on record as “binds”.

As for TGOLN2 (from UniProt O43493 22-437), the binding result in assay [4] is given as “binds”.

Turning to ACTN1 (from UniProt P12814 1-892), the binding entry in [9] is on record as “binds”.

B1: STAU2 (protein, UniProt Q9NUL3 1-570)
chain: MANPKEKTAMCLVNELARFNRVQPQYKLLNERGPAHSKMFSVQLSLGEQTWESEGSSIKKAQQAVANKALTESTLPKPVQKPPKSNVNNNPGSITPTVELNGLAMKRGEPAIYRPLDPKPFPNYRANYNFRGMYNQRYHCPVPKIFYVQLTVGNNEFFGEGKTRQAARHNAAMKALQALQNEPIPERSPQNGESGKDVDDDKDANKSEISLVFEIALKRNMPVSFEVIKESGPPHMKSFVTRVSVGEFSAEGEGNSKKLSKKRAATTVLQELKKLPPLPVVEKPKLFFKKRPKTIVKAGPEYGQGMNPISRLAQIQQAKKEKEPDYVLLSERGMPRRREFVMQVKVGNEVATGTGPNKKIAKKNAAEAMLLQLGYKASTNLQDQLEKTGENKGWSGPKPGFPEPTNNTPKGILHLSPDVYQEMEASRHKVISGTTLGYLSPKDMNQPSSSFFSISPTSNSSATIARELLMNGTSSTAEAIGLKGSSPTPPCSPVQPSKQLEYLARIQGFQAALSALKQFSEQGLDPIDGAMNIEKGSLEKQAKHLREKADNNQAPPGSIAQDCKKSNSAV
B1: in assay [10], the binding entry was “binds”.

B2: ZYX (protein, UniProt Q15942 1-572)
chain: MAAPRPSPAISVSVSAPAFYAPQKKFGPVVAPKPKVNPFRPGDSEPPPAPGAQRAQMGRVGEIPPPPPEDFPLPPPPLAGDGDDAEGALGGAFPPPPPPIEESFPPAPLEEEIFPSPPPPPEEEGGPEAPIPPPPQPREKVSSIDLEIDSLSSLLDDMTKNDPFKARVSSGYVPPPVATPFSSKSSTKPAAGGTAPLPPWKSPSSSQPLPQVPAPAQSQTQFHVQPQPQPKPQVQLHVQSQTQPVSLANTQPRGPPASSPAPAPKFSPVTPKFTPVASKFSPGAPGGSGSQPNQKLGHPEALSAGTGSPQPPSFTYAQQREKPRVQEKQHPVPPPAQNQNQVRSPGAPGPLTLKEVEELEQLTQQLMQDMEHPQRQNVAVNELCGRCHQPLARAQPAVRALGQLFHIACFTCHQCAQQLQGQQFYSLEGAPYCEGCYTDTLEKCNTCGEPITDRMLRATGKAYHPHCFTCVVCARPLEGTSFIVDQANRPHCVPDYHKQYAPRCSVCSEPIMPEPGRDETVRVVALDKNFHMKCYKCEDCGKPLSIEADDNGCFPLDGHVLCRKCHTARAQT
Regarding B2, the binding entry in assay [4] and in [2] was “binds” in each case.

B3: LASP1 (protein, UniProt Q14847 1-261)
chain: MNPNCARCGKIVYPTEKVNCLDKFWHKACFHCETCKMTLNMKNYKGYEKKPYCNAHYPKQSFTMVADTPENLRLKQQSELQSQVRYKEEFEKNKGKGFSVVADTPELQRIKKTQDQISNIKYHEEFEKSRMGPSGGEGMEPERRDSQDGSSYRRPLEQQQPHHIPTSAPVYQQPQQQPVAQSYGGYKEPAAPVSIQRSAPGGGGKRYRAVYDYSAADEDEVSFQDGDTIVNVQQIDDGWMYGTVERTGDTGMLPANYVEAI
For the molecule B3, the binding entry in assay [4] is reported as “binds”.
